Binding data for 1 substance are collected here from article PMC2811200.

Amino acid sequences for entries named in this document (tags omitted).
UniProt Q9UKV5: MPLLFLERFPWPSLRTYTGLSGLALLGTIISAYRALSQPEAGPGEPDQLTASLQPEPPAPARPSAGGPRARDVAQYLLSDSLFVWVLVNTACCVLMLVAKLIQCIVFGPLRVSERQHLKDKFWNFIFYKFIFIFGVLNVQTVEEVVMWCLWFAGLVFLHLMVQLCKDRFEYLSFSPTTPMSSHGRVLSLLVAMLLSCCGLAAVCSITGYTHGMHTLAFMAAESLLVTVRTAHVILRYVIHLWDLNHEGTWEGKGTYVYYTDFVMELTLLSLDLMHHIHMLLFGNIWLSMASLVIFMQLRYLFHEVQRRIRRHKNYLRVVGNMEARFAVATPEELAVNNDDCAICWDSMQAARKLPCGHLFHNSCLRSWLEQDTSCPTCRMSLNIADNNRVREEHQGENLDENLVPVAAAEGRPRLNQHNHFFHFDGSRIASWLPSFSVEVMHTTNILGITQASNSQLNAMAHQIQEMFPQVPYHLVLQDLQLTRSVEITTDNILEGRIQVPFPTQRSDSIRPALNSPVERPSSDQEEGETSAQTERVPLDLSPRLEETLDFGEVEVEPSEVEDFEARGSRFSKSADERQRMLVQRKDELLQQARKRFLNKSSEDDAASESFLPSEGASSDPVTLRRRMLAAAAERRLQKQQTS
UniProt P18850: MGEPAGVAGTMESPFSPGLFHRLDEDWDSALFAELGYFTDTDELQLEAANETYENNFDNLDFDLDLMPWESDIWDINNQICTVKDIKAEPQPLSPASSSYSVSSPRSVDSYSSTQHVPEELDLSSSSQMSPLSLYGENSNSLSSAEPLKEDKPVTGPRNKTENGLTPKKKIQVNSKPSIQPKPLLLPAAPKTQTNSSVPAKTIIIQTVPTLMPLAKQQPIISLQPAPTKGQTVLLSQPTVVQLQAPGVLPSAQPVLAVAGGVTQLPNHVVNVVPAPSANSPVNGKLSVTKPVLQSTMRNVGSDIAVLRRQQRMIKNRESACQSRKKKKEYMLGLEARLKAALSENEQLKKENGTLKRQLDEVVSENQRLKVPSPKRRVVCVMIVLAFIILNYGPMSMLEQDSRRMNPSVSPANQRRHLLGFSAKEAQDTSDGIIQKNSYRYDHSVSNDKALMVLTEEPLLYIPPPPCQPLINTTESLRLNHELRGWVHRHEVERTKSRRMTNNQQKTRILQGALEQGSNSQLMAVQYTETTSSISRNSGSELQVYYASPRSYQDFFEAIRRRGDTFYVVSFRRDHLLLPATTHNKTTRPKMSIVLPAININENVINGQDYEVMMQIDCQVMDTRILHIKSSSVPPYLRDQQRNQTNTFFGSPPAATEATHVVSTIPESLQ

No constants are given. Whether binding was seen depends on the method and setting. In cells and extracts the contact can be indirect.

The test addresses gp78 (endogenous) (human (endogenous in HEK293)) (UniProt Q9UKV5). As to the kind of experiment: co-IP; endogenous gp78 immunoprecipitated with anti-gp78 antibody from lysates of HEK293 cells transfected with Nhtt17Q, Nhtt138Q, FLAG-ATF6 or empty vector; 150 mM NaCl, 20 mM Tris pH 8.0, 5 mM EDTA, 0.5% NP40; immunoblot. Background: In western blotting, separated proteins are transferred to a membrane and probed.

Regarding FLAG-ATF6 (from UniProt P18850 1-670), the binding entry is “no binding”.
